Values from PubChem BioAssay AID1259308 (NCATS, 2017)
Shown is a random part of about 59,000 deposited reagents. In the full data, about 1,510 (2.6%) got an active call. 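Calls use total luciferase alone and ignore viability, so some active siRNAs may act by altering cell number.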 The numbers tell different reagents against one gene apart.

- Purpose: 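Knock-downs that increase output of a recombinant reporter protein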 (primary screen)
- Cells: human HEK293 embryonic kidney cells stably expressing firefly luciferase (HEK-CMV-Luc2-Hygro)
- Reagents: single siRNA against human genes, 0.8 pmol siRNA per well
- Duration: 72 h
- Read-out: 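Luciferase light (ONE-Glo) measured on one replicate plate set and viability (CellTiter-Glo) on the other, scaled to a negative control siRNA, with robust z-scores and luciferase per cell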
- Direction: total luciferase, z-score and total luciferase, % of control: higher = more reporter protein produced; luciferase per cell, z-score: higher = more reporter output per viable cell; viable cells, % of control: higher = more viable cells
- Active means: 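An siRNA counts as active if its total luciferase robust z-score exceeds 3; genes with two or more such siRNAs out of three were retested with fresh siRNAs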
- Calls: active = raised luciferase; inactive = no rise

no.	target	reagent no.	total luciferase, z-score	total luciferase, % of control	luciferase per cell, z-score	viable cells, % of control	call
1	VWC2L (GeneID 402117)	1	-0.873	64.5	-0.481	81.8	inactive
2	VWC2L (GeneID 402117)	2	-0.293	76.1	-0.816	105	inactive
3	VWC2L (GeneID 402117)	3	1.04	103	-0.361	126	inactive
4	MTHFR (GeneID 4524)	1	0.0846	83.6	-0.481	106	inactive
5	MTHFR (GeneID 4524)	2	0.985	101	1.32	80.1	inactive
6	MTHFR (GeneID 4524)	3	-0.143	79	1.3	62.7	inactive
7	ABCA12 (GeneID 26154)	1	0.0574	83	-0.0883	95	inactive
8	ABCA12 (GeneID 26154)	2	-0.22	77.5	-0.433	97.1	inactive
9	ABCA12 (GeneID 26154)	3	2.03	122	1.08	103	inactive

Quoted from above, 4 entries:
no.	target	reagent no.	total luciferase, z-score	total luciferase, % of control	luciferase per cell, z-score	viable cells, % of control	call
5	MTHFR (GeneID 4524)	2	0.985	101	1.32	80.1	inactive
6	MTHFR (GeneID 4524)	3	-0.143	79	1.3	62.7	inactive
7	ABCA12 (GeneID 26154)	1	0.0574	83	-0.0883	95	inactive
8	ABCA12 (GeneID 26154)	2	-0.22	77.5	-0.433	97.1	inactive

The results go on:
no.	target	reagent no.	total luciferase, z-score	total luciferase, % of control	luciferase per cell, z-score	viable cells, % of control	call
10	DLX6-AS1 (GeneID 285987)	1	-1.08	60.4	-0.655	80.2	inactive
11	DLX6-AS1 (GeneID 285987)	2	0.491	91.7	0.685	85.5	inactive
12	DLX6-AS1 (GeneID 285987)	3	0.997	102	0.623	96.5	inactive
13	RNF121 (GeneID 55298)	1	-1.15	59.1	-0.769	80.8	inactive
14	RNF121 (GeneID 55298)	2	0.536	92.5	0.717	85.6	inactive
15	RNF121 (GeneID 55298)	3	-0.15	78.9	1.06	66.7	inactive
16	CD37 (GeneID 951)	1	0.261	87.1	-0.0067	97.5	inactive
17	CD37 (GeneID 951)	2	0.447	90.8	0.949	79	inactive
18	CD37 (GeneID 951)	3	8.01	241	5.1	70.4	active
19	POPDC2 (GeneID 64091)	1	1.64	114	1.21	93	inactive
20	POPDC2 (GeneID 64091)	2	-1.47	52.6	-1.5	87.2	inactive
21	POPDC2 (GeneID 64091)	3	-0.851	65	-0.538	83.6	inactive
22	SLC39A12 (GeneID 221074)	1	-0.279	76.3	-0.545	98.5	inactive
23	SLC39A12 (GeneID 221074)	2	0.927	100	1.04	85.3	inactive
24	SLC39A12 (GeneID 221074)	3	1.05	103	0.34	105	inactive
